Test results reported in PMC3940878.
These are yes or no findings as the source states them, for the method shown. Sequences can lack the tags named with a protein.

Tests used:
[1] = biological target: T1, AdipoR1N (aa's 1-70) fused to T25 in vector pKTN25 (plasmid pKTN25-AdipoR1N) (UniProt Q96A54); assay: two-hybrid; bacterial adenylate cyclase-based two-hybrid (BACTH) in E. coli BTH101, T18 and T25 fusions, 1 mM IPTG, 18 h, beta-galactosidase activity in Miller units
T1 sequence: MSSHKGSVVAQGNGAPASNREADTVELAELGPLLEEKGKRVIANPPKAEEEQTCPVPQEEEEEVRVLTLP

[2] = biological target: T2, AdipoR1N (aa's 1-70) fused to the C-terminus of T25 (plasmid pKT25-AdipoR1N) (UniProt Q96A54); assay: as above
T2 sequence: T1 sequence

Row | binding [1] | binding [2] | Substance
1 | no binding | no binding | ERp46N (aa's 33-70) fused to the C-terminus of T18 (plasmid pUT18C-ERp46N) (from UniProt Q8NBS9 33-70) (domain or fragment)
2 | no binding | no binding | ERp46N (aa's 33-70) with a 34 aa linker, fused to the C-terminus of T18 (plasmid pUT18C-L-ERp46N) (from UniProt Q8NBS9 33-70) (domain or fragment)
